Reference: publication PMC12782891
These are yes or no findings as the source states them, for the method shown. For part of these data: Binding seen in cells or lysates may run through a third protein. Some results given as binding are weak or reduced against the parent protein; the word gives no strength. Where a sequence is shown, tags or fusion partners need not be part of it.

Key:
[1] = molecular target: T1, GST-OsABI5 (rice (Oryza sativa L.)) (UniProt Q8RZ35); assay: pull-down; purified His-OsSLR1 incubated with GST-OsABI5 or GST alone at 4°C for 3 h; pull-down with GST beads; immunoblot with anti-His and anti-GST; both purified
T1 sequence: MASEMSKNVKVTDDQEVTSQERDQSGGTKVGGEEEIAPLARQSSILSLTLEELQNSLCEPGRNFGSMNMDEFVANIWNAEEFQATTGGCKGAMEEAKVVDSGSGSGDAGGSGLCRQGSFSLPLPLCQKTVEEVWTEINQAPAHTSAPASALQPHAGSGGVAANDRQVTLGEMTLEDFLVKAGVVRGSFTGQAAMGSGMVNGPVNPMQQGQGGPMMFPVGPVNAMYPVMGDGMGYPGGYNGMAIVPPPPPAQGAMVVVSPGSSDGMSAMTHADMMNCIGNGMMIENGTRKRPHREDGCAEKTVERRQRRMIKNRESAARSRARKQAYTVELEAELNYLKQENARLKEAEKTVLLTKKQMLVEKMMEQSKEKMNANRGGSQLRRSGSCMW

[2] = molecular target: T2, OsABI5-MYC (rice (Oryza sativa L.)) (UniProt Q8RZ35); assay: co-IP; protein extracts of 2-d-old OsABI5-MYC or Nip seedlings; MYC-agarose beads, 4°C, 2 h; IP buffer 50 mmol/L Tris-HCl pH 7.5, 150 mmol/L NaCl, 5 mmol/L EDTA, 0.1% NP-40; blot with anti-MYC and anti-OsSLR1
T2 sequence: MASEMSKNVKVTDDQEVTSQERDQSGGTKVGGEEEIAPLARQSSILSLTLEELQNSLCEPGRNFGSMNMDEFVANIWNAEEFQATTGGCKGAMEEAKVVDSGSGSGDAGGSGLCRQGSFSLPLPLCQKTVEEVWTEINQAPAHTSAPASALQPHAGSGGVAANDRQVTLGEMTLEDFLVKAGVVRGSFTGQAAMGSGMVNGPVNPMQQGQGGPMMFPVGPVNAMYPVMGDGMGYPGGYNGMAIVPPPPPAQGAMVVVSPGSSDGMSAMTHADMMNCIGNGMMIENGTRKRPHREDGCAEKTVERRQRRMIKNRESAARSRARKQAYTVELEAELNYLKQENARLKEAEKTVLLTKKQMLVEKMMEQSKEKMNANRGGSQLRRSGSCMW

[3] = molecular target: T3, OsABI5-nYFP (rice (Oryza sativa L.)) (UniProt Q8RZ35); assay: split reporter; BiFC with nYFP and cYFP fusions co-expressed in Nicotiana benthamiana leaves, 2 d after infiltration, confocal microscopy
T3 sequence: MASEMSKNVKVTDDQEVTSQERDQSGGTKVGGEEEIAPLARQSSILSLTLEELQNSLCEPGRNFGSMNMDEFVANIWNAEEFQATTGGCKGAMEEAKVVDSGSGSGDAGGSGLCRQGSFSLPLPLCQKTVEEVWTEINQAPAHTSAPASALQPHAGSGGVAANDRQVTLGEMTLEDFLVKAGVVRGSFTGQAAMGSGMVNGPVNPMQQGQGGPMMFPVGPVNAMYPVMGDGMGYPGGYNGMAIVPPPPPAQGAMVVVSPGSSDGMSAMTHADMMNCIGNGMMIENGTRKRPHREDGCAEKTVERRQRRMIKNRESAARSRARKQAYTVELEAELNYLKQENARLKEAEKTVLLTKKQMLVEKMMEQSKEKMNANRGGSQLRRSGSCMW

B1: His-OsSLR1 (protein, UniProt Q7G7J6 1-625)
chain: MKREYQEAGGSSGGGSSADMGSCKDKVMAGAAGEEEDVDELLAALGYKVRSSDMADVAQKLEQLEMAMGMGGVSAPGAADDGFVSHLATDTVHYNPSDLSSWVESMLSELNAPLPPIPPAPPAARHASTSSTVTGGGGSGFFELPAAADSSSSTYALRPISLPVVATADPSAADSARDTKRMRTGGGSTSSSSSSSSSLGGGASRGSVVEAAPPATQGAAAANAPAVPVVVVDTQEAGIRLVHALLACAEAVQQENFAAAEALVKQIPTLAASQGGAMRKVAAYFGEALARRVYRFRPADSTLLDAAFADLLHAHFYESCPYLKFAHFTANQAILEAFAGCHRVHVVDFGIKQGMQWPALLQALALRPGGPPSFRLTGVGPPQPDETDALQQVGWKLAQFAHTIRVDFQYRGLVAATLADLEPFMLQPEGEADANEEPEVIAVNSVFELHRLLAQPGALEKVLGTVHAVRPRIVTVVEQEANHNSGSFLDRFTESLHYYSTMFDSLEGGSSGQAELSPPAAGGGGGTDQVMSEVYLGRQICNVVACEGAERTERHETLGQWRNRLGRAGFEPVHLGSNAYKQASTLLALFAGGDGYRVEEKEGCLTLGWHTRPLIATSAWRVAAA
- binding [1]: binds

B2: endogenous OsSLR1 (protein, UniProt Q7G7J6 1-625)
chain: MKREYQEAGGSSGGGSSADMGSCKDKVMAGAAGEEEDVDELLAALGYKVRSSDMADVAQKLEQLEMAMGMGGVSAPGAADDGFVSHLATDTVHYNPSDLSSWVESMLSELNAPLPPIPPAPPAARHASTSSTVTGGGGSGFFELPAAADSSSSTYALRPISLPVVATADPSAADSARDTKRMRTGGGSTSSSSSSSSSLGGGASRGSVVEAAPPATQGAAAANAPAVPVVVVDTQEAGIRLVHALLACAEAVQQENFAAAEALVKQIPTLAASQGGAMRKVAAYFGEALARRVYRFRPADSTLLDAAFADLLHAHFYESCPYLKFAHFTANQAILEAFAGCHRVHVVDFGIKQGMQWPALLQALALRPGGPPSFRLTGVGPPQPDETDALQQVGWKLAQFAHTIRVDFQYRGLVAATLADLEPFMLQPEGEADANEEPEVIAVNSVFELHRLLAQPGALEKVLGTVHAVRPRIVTVVEQEANHNSGSFLDRFTESLHYYSTMFDSLEGGSSGQAELSPPAAGGGGGTDQVMSEVYLGRQICNVVACEGAERTERHETLGQWRNRLGRAGFEPVHLGSNAYKQASTLLALFAGGDGYRVEEKEGCLTLGWHTRPLIATSAWRVAAA
- binding [2]: binds

B3: OsSLR1-cYFP (protein, UniProt Q7G7J6 1-625)
chain: MKREYQEAGGSSGGGSSADMGSCKDKVMAGAAGEEEDVDELLAALGYKVRSSDMADVAQKLEQLEMAMGMGGVSAPGAADDGFVSHLATDTVHYNPSDLSSWVESMLSELNAPLPPIPPAPPAARHASTSSTVTGGGGSGFFELPAAADSSSSTYALRPISLPVVATADPSAADSARDTKRMRTGGGSTSSSSSSSSSLGGGASRGSVVEAAPPATQGAAAANAPAVPVVVVDTQEAGIRLVHALLACAEAVQQENFAAAEALVKQIPTLAASQGGAMRKVAAYFGEALARRVYRFRPADSTLLDAAFADLLHAHFYESCPYLKFAHFTANQAILEAFAGCHRVHVVDFGIKQGMQWPALLQALALRPGGPPSFRLTGVGPPQPDETDALQQVGWKLAQFAHTIRVDFQYRGLVAATLADLEPFMLQPEGEADANEEPEVIAVNSVFELHRLLAQPGALEKVLGTVHAVRPRIVTVVEQEANHNSGSFLDRFTESLHYYSTMFDSLEGGSSGQAELSPPAAGGGGGTDQVMSEVYLGRQICNVVACEGAERTERHETLGQWRNRLGRAGFEPVHLGSNAYKQASTLLALFAGGDGYRVEEKEGCLTLGWHTRPLIATSAWRVAAA
- binding [3]: binds
